This is one part of the list.
What was measured:
Test in all cases: glycan array binding signal (z-score within array); higher = stronger binding
Conditions in all cases: glycan notation: IUPAC condensed, linker removed
[1] = biological target: Fuc(a1-2)Gal(b1-4)GlcNAc(b1-3)Gal(b1-4)GlcNAc(b1-2)Man(a1-3)[Fuc(a1-2)Gal(b1-4)GlcNAc(b1-3)Gal(b1-4)GlcNAc(b1-2)Man(a1-6)]Man(b1-4)GlcNAc(b1-4)GlcNAc
Summary of the method: (§1)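 Columns mapping to the same glycan were averaged after glycan names were converted to IUPAC-condensed notation. The data come from 3228 arrays in the Consortium for Functional Glycomics database, limited to those with an available protein sequence. Binding is reported as a within-array Z-score averaged across arrays of one protein sequence and across linkers.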

[2] = biological target: Fuc(a1-2)Gal(b1-4)GlcNAc(b1-3)Gal(b1-4)GlcNAc(b1-3)Gal(b1-4)GlcNAc
Summary of the method: as §1

[3] = biological target: Fuc(a1-2)Gal(b1-4)GlcNAc(b1-3)GalNAc
Summary of the method: as §1

[4] = biological target: Fuc(a1-2)Gal(b1-4)GlcNAc(b1-3)[Fuc(a1-2)Gal(b1-4)GlcNAc(b1-6)]GalNAc
Summary of the method: as §1

[5] = biological target: Fuc(a1-2)Gal(b1-4)GlcNAc(b1-3)[Fuc(a1-3)[Gal(b1-4)]GlcNAc(b1-6)]Gal(b1-4)Glc
Summary of the method: as §1

[6] = biological target: Fuc(a1-2)Gal(b1-4)GlcNAc(b1-6)GalNAc
Summary of the method: as §1

[7] = biological target: Fuc(a1-2)Gal(b1-4)GlcNAc6S
Summary of the method: as §1

[8] = biological target: Fuc(a1-2)Gal(b1-4)[Fuc(a1-3)]GlcNAc
Summary of the method: as §1

[9] = biological target: Fuc(a1-2)Gal(b1-4)[Fuc(a1-3)]GlcNAc(b1-2)Man(a1-3)[Fuc(a1-2)Gal(b1-4)[Fuc(a1-3)]GlcNAc(b1-2)Man(a1-6)]Man(b1-4)GlcNAc(b1-4)[Fuc(a1-6)]GlcNAc
Summary of the method: as §1

[10] = biological target: Fuc(a1-2)Gal(b1-4)[Fuc(a1-3)]GlcNAc(b1-2)[Fuc(a1-2)Gal(b1-4)[Fuc(a1-3)]GlcNAc(b1-4)]Man(a1-3)[Fuc(a1-2)Gal(b1-4)[Fuc(a1-3)]GlcNAc(b1-2)Man(a1-6)]Man(b1-4)GlcNAc(b1-4)GlcNAc
Summary of the method: as §1

[11] = biological target: Fuc(a1-2)Gal(b1-4)[Fuc(a1-3)]GlcNAc(b1-3)Gal(b1-4)[Fuc(a1-3)]GlcNAc
Summary of the method: as §1

[12] = biological target: Fuc(a1-2)Gal(b1-4)[Fuc(a1-3)]GlcNAc(b1-3)Gal(b1-4)[Fuc(a1-3)]GlcNAc(b1-3)Gal(b1-4)[Fuc(a1-3)]GlcNAc
Summary of the method: as §1

[13] = biological target: Fuc(a1-2)Gal(b1-4)[Fuc(a1-3)]GlcNAc(b1-3)GalNAc
Summary of the method: as §1

[14] = biological target: Fuc(a1-2)Gal(b1-4)[Fuc(a1-3)]GlcNAc(b1-3)[Neu5Ac(a2-6)Gal(b1-4)GlcNAc(b1-6)]Gal(b1-4)Glc
Summary of the method: as §1

[15] = biological target: Fuc(a1-2)Gal3S(b1-4)GlcNAc
Summary of the method: as §1

[16] = biological target: Fuc(a1-2)Gal6S(b1-3)GlcNAc
Summary of the method: as §1

[17] = biological target: Fuc(a1-2)Gal6S(b1-3)GlcNAc6S
Summary of the method: as §1

Fuc(a1-2)Gal6S(b1-4)Glc = biological target: Fuc(a1-2)Gal6S(b1-4)Glc
Summary of the method: as §1

[18] = biological target: Fuc(a1-2)Gal6S(b1-4)Glc6S
Summary of the method: as §1

Fuc(a1-2)[Gal(a1-3)]Gal = biological target: Fuc(a1-2)[Gal(a1-3)]Gal
Summary of the method: as §1

[19] = biological target: Fuc(a1-2)[Gal(a1-3)]Gal(b1-3)GalNAc
Summary of the method: as §1

[20] = biological target: Fuc(a1-2)[Gal(a1-3)]Gal(b1-3)GalNAc(b1-3)Gal(a1-4)Gal(b1-4)Glc
Summary of the method: as §1

[21] = biological target: Fuc(a1-2)[Gal(a1-3)]Gal(b1-3)GlcNAc
Summary of the method: as §1

[22] = biological target: Fuc(a1-2)[Gal(a1-3)]Gal(b1-3)GlcNAc(b1-2)Man(a1-3)[Fuc(a1-2)[Gal(a1-3)]Gal(b1-3)GlcNAc(b1-2)Man(a1-6)]Man(b1-4)GlcNAc(b1-4)GlcNAc
Summary of the method: as §1

[23] = biological target: Fuc(a1-2)[Gal(a1-3)]Gal(b1-3)GlcNAc(b1-2)Man(a1-3)[Fuc(a1-2)[Gal(a1-3)]Gal(b1-3)GlcNAc(b1-2)Man(a1-6)]Man(b1-4)GlcNAc(b1-4)[Fuc(a1-6)]GlcNAc
Summary of the method: as §1

[24] = biological target: Fuc(a1-2)[Gal(a1-3)]Gal(b1-3)GlcNAc(b1-3)GalNAc
Summary of the method: as §1

[25] = biological target: Fuc(a1-2)[Gal(a1-3)]Gal(b1-3)GlcNAc(b1-6)GalNAc
Summary of the method: as §1

[26] = biological target: Fuc(a1-2)[Gal(a1-3)]Gal(b1-4)Glc
Summary of the method: as §1

[27] = biological target: Fuc(a1-2)[Gal(a1-3)]Gal(b1-4)GlcNAc
Summary of the method: as §1

[28] = biological target: Fuc(a1-2)[Gal(a1-3)]Gal(b1-4)GlcNAc(b1-2)Man
Summary of the method: as §1

[29] = biological target: Fuc(a1-2)[Gal(a1-3)]Gal(b1-4)GlcNAc(b1-2)Man(a1-3)[Fuc(a1-2)[Gal(a1-3)]Gal(b1-4)GlcNAc(b1-2)Man(a1-6)]Man(b1-4)GlcNAc(b1-4)GlcNAc
Summary of the method: as §1

[30] = biological target: Fuc(a1-2)[Gal(a1-3)]Gal(b1-4)GlcNAc(b1-2)Man(a1-3)[Fuc(a1-2)[Gal(a1-3)]Gal(b1-4)GlcNAc(b1-2)Man(a1-6)]Man(b1-4)GlcNAc(b1-4)[Fuc(a1-6)]GlcNAc
Summary of the method: as §1

[31] = biological target: Fuc(a1-2)[Gal(a1-3)]Gal(b1-4)GlcNAc(b1-3)GalNAc
Summary of the method: as §1

[32] = biological target: Fuc(a1-2)[Gal(a1-3)]Gal(b1-4)GlcNAc(b1-3)[Fuc(a1-2)[Gal(a1-3)]Gal(b1-4)GlcNAc(b1-6)]GalNAc
Summary of the method: as §1

[33] = biological target: Fuc(a1-2)[Gal(a1-3)]Gal(b1-4)GlcNAc(b1-6)GalNAc
Summary of the method: as §1

[34] = biological target: Fuc(a1-2)[Gal(a1-3)]Gal(b1-4)[Fuc(a1-3)]Glc
Summary of the method: as §1

[35] = biological target: Fuc(a1-2)[Gal(a1-3)]Gal(b1-4)[Fuc(a1-3)]GlcNAc
Summary of the method: as §1

[36] = biological target: Fuc(a1-2)[Gal(a1-3)]Gal(b1-4)[Fuc(a1-3)]GlcNAc(b1-3)GalNAc
Summary of the method: as §1

[37] = biological target: Fuc(a1-2)[Gal(a1-4)]Gal(b1-4)GlcNAc
Summary of the method: as §1

[38] = biological target: Fuc(a1-2)[GalNAc(a1-3)]Gal
Summary of the method: as §1

[39] = biological target: Fuc(a1-2)[GalNAc(a1-3)]Gal(b1-3)GalNAc(a1-3)[Fuc(a1-2)]Gal(b1-4)GlcNAc
Summary of the method: as §1

[40] = biological target: Fuc(a1-2)[GalNAc(a1-3)]Gal(b1-3)GalNAc(b1-3)Gal(a1-4)Gal(b1-4)Glc
Summary of the method: as §1

[41] = biological target: Fuc(a1-2)[GalNAc(a1-3)]Gal(b1-3)GlcNAc
Summary of the method: as §1

[42] = biological target: Fuc(a1-2)[GalNAc(a1-3)]Gal(b1-3)GlcNAc(b1-2)Man(a1-3)[Fuc(a1-2)[GalNAc(a1-3)]Gal(b1-3)GlcNAc(b1-2)Man(a1-6)]Man(b1-4)GlcNAc(b1-4)GlcNAc
Summary of the method: as §1

[43] = biological target: Fuc(a1-2)[GalNAc(a1-3)]Gal(b1-3)GlcNAc(b1-2)Man(a1-3)[Fuc(a1-2)[GalNAc(a1-3)]Gal(b1-3)GlcNAc(b1-2)Man(a1-6)]Man(b1-4)GlcNAc(b1-4)[Fuc(a1-6)]GlcNAc
Summary of the method: as §1

B1: Epa8 (Candida glabrata) (protein)
chain: MGSSHHHHHHSSGLVPRGSHMASSRALSDYPLGCSPLLGTKLTPGLSMELYEYPLDNHGIGPHCWDPAYLNPEYPRTGFESHKLIGTAQNVMSLNFEHRTQDCHVEFSNLPASFNFPDQITLTNFTMLLYGYFKPKESGRYRFHMEADDLLLMNLGAGNAFDCCAHEATRNNLGDYIAYDIWAGTRKDVEVFLEKEVFYPLRLFFNNRDGRAALDFSYYLNGATEPGTDIPELLFSLPDGESCPAYI
In the case of B1, the “glycan array binding signal (z-score)” value [1] is reported as -1.67, the “glycan array binding signal (z-score)” value [2] is reported as 0.526 and the “glycan array binding signal (z-score)” value [3] is reported as 0.143. For the same binder, the “glycan array binding signal (z-score)” value [4] was -0.207, the “glycan array binding signal (z-score)” value [5] was 0.972 and the “glycan array binding signal (z-score)” value [6] was 0.724. For the same binder, the “glycan array binding signal (z-score)” value [7] was -0.155, the “glycan array binding signal (z-score)” value [8] was -0.281 and the “glycan array binding signal (z-score)” value [9] was 0.259. For the same binder, the “glycan array binding signal (z-score)” value [10] was 0.9, the “glycan array binding signal (z-score)” value [11] was -0.915 and the “glycan array binding signal (z-score)” value [12] was -0.498. The “glycan array binding signal (z-score)” value [13] was 2.63, the “glycan array binding signal (z-score)” value [14] was -0.368 and the “glycan array binding signal (z-score)” value [15] was -0.437. The “glycan array binding signal (z-score)” value [16] was -0.386, the “glycan array binding signal (z-score)” value [17] was 1.52 and the “glycan array binding signal (z-score)” value (Fuc(a1-2)Gal6S(b1-4)Glc) was -0.314. The “glycan array binding signal (z-score)” value [18] was -0.062, the “glycan array binding signal (z-score)” value (Fuc(a1-2)[Gal(a1-3)]Gal) was -0.74 and the “glycan array binding signal (z-score)” value [19] was 0.146. For the same binder, the “glycan array binding signal (z-score)” value [20] was 0.323, the “glycan array binding signal (z-score)” value [21] was -0.24 and the “glycan array binding signal (z-score)” value [22] was -0.447. For the same binder, the “glycan array binding signal (z-score)” value [23] was 0.488, the “glycan array binding signal (z-score)” value [24] was 0.166 and the “glycan array binding signal (z-score)” value [25] was -0.457. For the same binder, the “glycan array binding signal (z-score)” value [26] was -0.681, the “glycan array binding signal (z-score)” value [27] was -0.826 and the “glycan array binding signal (z-score)” value [28] was -0.336. The “glycan array binding signal (z-score)” value [29] was -0.353, the “glycan array binding signal (z-score)” value [30] was 0.03 and the “glycan array binding signal (z-score)” value [31] was -0.576. For the same binder, the “glycan array binding signal (z-score)” value [32] was 0.437, the “glycan array binding signal (z-score)” value [33] was 1.43 and the “glycan array binding signal (z-score)” value [34] was -0.691. The “glycan array binding signal (z-score)” value [35] was -0.006, the “glycan array binding signal (z-score)” value [36] was 0.72 and the “glycan array binding signal (z-score)” value [37] was -0.094. For the same binder, the “glycan array binding signal (z-score)” value [38] was -0.593, the “glycan array binding signal (z-score)” value [39] was -0.446 and the “glycan array binding signal (z-score)” value [40] was 0.323. The “glycan array binding signal (z-score)” value [41] was -0.03, the “glycan array binding signal (z-score)” value [42] was -0.325 and the “glycan array binding signal (z-score)” value [43] was 0.09.
